Record: PubChem BioAssay AID1259308 (NCATS, 2017)

Purpose: 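Candidate targets for better recombinant protein yield in mammalian cells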 (primary screen)
Cell system: human HEK293 embryonic kidney cells stably expressing firefly luciferase (HEK-CMV-Luc2-Hygro)
Reagent: single siRNA against human genes, 0.8 pmol siRNA per well
Time to read-out: 72 h
Read-out: 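Reporter luminescence and viable-cell signal on separate replicate plates, given as percent of non-targeting control and median/MAD z-scores, plus per-cell luciferase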
Direction: total luciferase, z-score and total luciferase, % of control: higher = more reporter protein produced; luciferase per cell, z-score: higher = more reporter output per viable cell; viable cells, % of control: higher = more viable cells
Call rule: 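An siRNA counts as active if its total luciferase robust z-score exceeds 3; genes with two or more such siRNAs out of three were retested with fresh siRNAs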
Meaning of the calls: active = raised luciferase; inactive = no rise
Shown is an unselected part of about 59,000 deposited reagents. Over the whole deposit, about 1,510 (2.6%) got an active call. 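Calls use total luciferase alone and ignore viability, so some active siRNAs may act by altering cell number.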 The numbers tell different reagents against one gene apart. No sequences are given here.

gene,siRNA no.,"total luciferase, z-score","total luciferase, % of control","luciferase per cell, z-score","viable cells, % of control",call
CYP21A2 (GeneID 1589),1,-0.0154,81.6,-0.304,98.8,inactive
CYP21A2 (GeneID 1589),2,-0.61,69.7,-1.04,103,inactive
CYP21A2 (GeneID 1589),3,-0.0661,80.6,-0.452,101,inactive
RNASE13 (GeneID 440163),1,0.633,94.5,0.259,98.6,inactive
RNASE13 (GeneID 440163),2,-2.14,39.2,-1.56,66.1,inactive
RNASE13 (GeneID 440163),3,1.42,110,0.728,102,inactive
KLRF1 (GeneID 51348),1,1.21,106,0.642,99.9,inactive
KLRF1 (GeneID 51348),2,0.148,84.8,0.369,86,inactive
KLRF1 (GeneID 51348),3,-0.792,66.1,0.615,62.8,inactive
CHRNG (GeneID 1146),1,-1.21,57.9,-1.32,91.7,inactive
CHRNG (GeneID 1146),2,0.148,84.8,0.13,91.6,inactive
CHRNG (GeneID 1146),3,-0.0264,81.4,-0.161,94.9,inactive
HNRNPA1L2 (GeneID 144983),1,0.85,98.8,0.597,94.3,inactive
HNRNPA1L2 (GeneID 144983),2,0.293,87.7,0.888,77.6,inactive
HNRNPA1L2 (GeneID 144983),3,2.59,133,2.28,81.7,inactive
FCGR1BP (GeneID 2210),1,0.158,85,-0.672,113,inactive
FCGR1BP (GeneID 2210),2,0.801,97.8,0.548,94.6,inactive
FCGR1BP (GeneID 2210),3,1.33,108,0.906,95.4,inactive
PATE2 (GeneID 399967),1,0.615,94.1,-0.271,113,inactive
PATE2 (GeneID 399967),2,-0.488,72.2,-0.572,93.8,inactive
PATE2 (GeneID 399967),3,0.0509,82.9,0.945,72.2,inactive
CDIP1 (GeneID 29965),1,-1.22,57.6,-0.745,78.3,inactive
CDIP1 (GeneID 29965),2,0.311,88.1,1.07,74.2,inactive
CDIP1 (GeneID 29965),3,-0.518,71.6,-0.301,86.6,inactive

Targets listed so far whose target name starts with F or f (3):
gene,siRNA no.,"total luciferase, z-score","total luciferase, % of control","luciferase per cell, z-score","viable cells, % of control",call
FCGR1BP (GeneID 2210),1,0.158,85,-0.672,113,inactive
FCGR1BP (GeneID 2210),2,0.801,97.8,0.548,94.6,inactive
FCGR1BP (GeneID 2210),3,1.33,108,0.906,95.4,inactive
